Some entries share one result that the patent states for a list of compounds.
System: HEK293T cells
Test: Surface expression of CD40L trimerization mutants, transfected HEK293T cells (FACS)
Format: cell-based, human
Settings: transiently transfected HEK293T cells
Method: Mutations were engineered within CD40L payload to reduce the binding affinity of CD40L payload for the CD40L endogenously expressed by cells. Constructs OT-002078, OT-002079, OT-002080, OT-002081, OT-002082 were generated with the CD40L trimerization mutants. HEK293T cells were transiently transfected with the constructs and CD40L expression was measured by FACS.

B1: OT-002078: construct with CD40L trimerization mutant (protein)
chain: MGGSGGGSGGGSGMIETYNQTSPRSAATGLPISMKIFMYLLTVFLITQMIGSALFAVYLHRRLDKIEDERNLHEDFVFMKTIQRCNTGERSLSLLNCEEIKSQFEGFVKDIMLNKEETKKENSFEMQKGDQNPQIAAHVISEASSKTTSVLQWAEKGYYTMSNNLVTLENGKQLTVKRQGLYYIYAQVTFCSNREASSQAPFIASLCLKSPGRFERILLRAANTHSSAKPCGQQSIGLFGVFELQPGASVFVNVTDPSQVSHGTGFTSFGLLKL
  expression on cell surface (percentage of cells positive for CD40L): greater than 50%

B2: OT-002079: construct with CD40L trimerization mutant (protein)
chain: MGGSGGGSGGGSGMIETYNQTSPRSAATGLPISMKIFMYLLTVFLITQMIGSALFAVYLHRRLDKIEDERNLHEDFVFMKTIQRCNTGERSLSLLNCEEIKSQFEGFVKDIMLNKEETKKENSFEMQKGDQNPQIAAHVISEASSKTTSVLQWAEKGYYTMSNNLVTLENGKQLTVKRQGLYYIYAQVTFCSNREASSQAPFIASLCLKSPGRFERILLRAANTHSSAKPCGQQSIGLHGVFELQPGASVFVNVTDPSQVSHGTGFTSFGLLKL
  expression on cell surface (percentage of cells positive for CD40L): greater than 50%

— US20220175781A1, “CD40L COMPOSITIONS AND METHODS FOR TUNABLE REGULATION” (Obsidian Therapeutics, Inc., priority 2019, published 2022)
